Reference: PubChem BioAssay AID1259254 (NCATS, 2017)
Assay: 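Gene knock-downs that lead to re-replication, shown by excess G2 DNA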 (primary screen). Cell system: human HCT116 colorectal cancer cells. Knock-down reagent: single siRNA against human genes. Time to read-out: 3 days. Detection: 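Nuclei stained with Hoechst and imaged; cell-cycle phase assigned by DNA content; G2 share scaled per plate, non-targeting siRNA 0%, GMNN siRNA 100%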. Reading the numbers: G2 robust z-score: higher = more G2 cells, more excess DNA replication. Call rule: 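Active siRNAs have a G2 robust z of 5 or more median absolute deviations over the median, which in these data means about 38% or higher of GMNN control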.
The deposit covers about 59,000 reagents; below is a random part of them. About 1,550 of all reagents (2.6%) were called active. 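G2 share is only a proxy for re-replication; each gene was hit by three separate siRNAs, and active genes were retested.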 Entries without a mark were called inactive. Reagents against one gene are numbered here. Not all columns of the deposit are shown. Reagent sequences are not shown. Not given: the amount of reagent.

| gene knocked down | reagent no. | G2 robust z-score |
| --- | --- | --- |
| SNRPD1 | 1 | 0.118 |
| SNRPD1 | 2 | 2.71 |
| SNRPD1 | 3 | 1.61 |
| NTN5 | 1 | -0.654 |
| NTN5 | 2 | -0.543 |
| NTN5 | 3 | 1.06 |
| OR4K13 | 1 | -0.73 |
| OR4K13 | 2 | -0.201 |
| OR4K13 | 3 | -0.873 |
| GABRP | 1 | 2.78 |
| GABRP | 2 | -0.471 |
| GABRP | 3 | 0.0254 |
| KIAA0319L | 1 | 0.047 |
| KIAA0319L | 2 | 0.475 |
| KIAA0319L | 3 | 2.11 |
| SOCS2-AS1 | 1 | 0.76 |
| SOCS2-AS1 | 2 | 0.153 |
| SOCS2-AS1 | 3 | 0.872 |
| KIF3B | 1 | -1.15 |
| KIF3B | 2 | 1.12 |
| KIF3B | 3 | -0.482 |
| MAP7D1 | 1 | 1.44 |
| MAP7D1 | 2 | -0.957 |
| MAP7D1 | 3 | 0.112 |
| SPATA4 | 1 | 3.13 |
| SPATA4 | 2 | 4 |
| SPATA4 | 3 | -0.341 |

Targets listed so far whose gene name starts with K or k:
| gene knocked down | reagent no. | G2 robust z-score |
| --- | --- | --- |
| KIAA0319L | 1 | 0.047 |
| KIAA0319L | 2 | 0.475 |
| KIAA0319L | 3 | 2.11 |
| KIF3B | 1 | -1.15 |
| KIF3B | 2 | 1.12 |
| KIF3B | 3 | -0.482 |

Continued:
| gene knocked down | reagent no. | G2 robust z-score |
| --- | --- | --- |
| TMEM132C | 1 | 3.4 |
| TMEM132C | 2 | 0.119 |
| TMEM132C | 3 | -0.214 |
| GPAT3 | 1 | -0.861 |
| GPAT3 | 2 | 1.5 |
| GPAT3 | 3 | 0.993 |
| MOSPD1 | 1 | 1.1 |
| MOSPD1 | 2 | -0.629 |
| MOSPD1 | 3 | -0.489 |
| RECQL | 1 | -0.361 |
| RECQL | 2 | -0.016 |
| RECQL | 3 | 3.32 |
| NKX2-6 | 1 | 0.798 |
| NKX2-6 | 2 | 0.789 |
| NKX2-6 | 3 | -1.51 |
| CEP68 | 1 | 2.85 |
| CEP68 | 2 | -0.586 |
| CEP68 | 3 | 0.524 |
| ARFGEF3 | 1 | -0.307 |
| ARFGEF3 | 2 | 1.46 |
| ARFGEF3 | 3 | 0.364 |
| ASMT | 1 | -0.567 |
| ASMT | 2 | 1.96 |
| ASMT | 3 | -0.515 |
| LINC03086 | 1 | -0.115 |
| LINC03086 | 2 | 0.561 |
| LINC03086 | 3 | 0.35 |
| CEACAM18 | 1 | 0.00927 |
| CEACAM18 | 2 | 2.32 |
| CEACAM18 | 3 | -0.448 |
| RUFY3 | 1 | -0.00444 |
| RUFY3 | 2 | 1.49 |
| RUFY3 | 3 | 0.895 |
| OR2V2 | 1 | -0.823 |
| OR2V2 | 2 | 2.26 |
| OR2V2 | 3 | 1.94 |
| LGALS9B | 1 | 4.68 |
| LGALS9B | 2 | 1.4 |
| LGALS9B | 3 | -0.657 |
| MRPS25 | 1 | 0.473 |
| MRPS25 | 2 | -0.294 |
| MRPS25 | 3 | -0.168 |
